For two substances, binding results are on record in PMC5736349.

Amino acid sequences for entries named in this document (tags omitted).
UniProt Q62120: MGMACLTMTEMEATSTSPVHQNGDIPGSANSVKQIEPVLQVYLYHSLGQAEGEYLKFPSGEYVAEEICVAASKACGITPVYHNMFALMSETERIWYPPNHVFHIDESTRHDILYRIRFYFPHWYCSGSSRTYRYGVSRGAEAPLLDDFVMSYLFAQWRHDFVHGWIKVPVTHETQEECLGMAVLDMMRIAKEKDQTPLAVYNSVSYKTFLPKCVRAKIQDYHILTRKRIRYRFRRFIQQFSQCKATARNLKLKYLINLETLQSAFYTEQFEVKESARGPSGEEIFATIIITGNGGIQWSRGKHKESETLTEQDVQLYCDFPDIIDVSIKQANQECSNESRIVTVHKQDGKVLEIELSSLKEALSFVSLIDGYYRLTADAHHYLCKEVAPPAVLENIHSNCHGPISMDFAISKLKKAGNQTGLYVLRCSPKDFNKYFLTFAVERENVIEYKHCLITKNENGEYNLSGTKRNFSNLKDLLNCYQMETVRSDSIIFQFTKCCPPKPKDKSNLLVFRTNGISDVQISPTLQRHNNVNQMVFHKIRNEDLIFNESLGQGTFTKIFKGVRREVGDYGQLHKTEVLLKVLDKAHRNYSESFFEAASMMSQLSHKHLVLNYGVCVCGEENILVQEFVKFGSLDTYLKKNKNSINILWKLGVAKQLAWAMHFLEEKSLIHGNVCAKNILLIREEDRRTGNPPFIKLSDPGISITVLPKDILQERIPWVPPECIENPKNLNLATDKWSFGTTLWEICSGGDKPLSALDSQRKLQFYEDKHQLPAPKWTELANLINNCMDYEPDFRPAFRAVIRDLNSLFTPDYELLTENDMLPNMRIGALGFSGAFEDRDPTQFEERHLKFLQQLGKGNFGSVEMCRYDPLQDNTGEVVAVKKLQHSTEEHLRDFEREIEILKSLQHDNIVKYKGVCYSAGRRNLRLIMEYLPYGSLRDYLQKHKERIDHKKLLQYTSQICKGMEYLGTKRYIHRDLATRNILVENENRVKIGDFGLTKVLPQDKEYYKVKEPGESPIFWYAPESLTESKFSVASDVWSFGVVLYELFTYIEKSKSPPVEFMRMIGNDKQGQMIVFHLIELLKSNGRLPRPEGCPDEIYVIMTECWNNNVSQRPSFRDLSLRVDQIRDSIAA
UniProt P52332: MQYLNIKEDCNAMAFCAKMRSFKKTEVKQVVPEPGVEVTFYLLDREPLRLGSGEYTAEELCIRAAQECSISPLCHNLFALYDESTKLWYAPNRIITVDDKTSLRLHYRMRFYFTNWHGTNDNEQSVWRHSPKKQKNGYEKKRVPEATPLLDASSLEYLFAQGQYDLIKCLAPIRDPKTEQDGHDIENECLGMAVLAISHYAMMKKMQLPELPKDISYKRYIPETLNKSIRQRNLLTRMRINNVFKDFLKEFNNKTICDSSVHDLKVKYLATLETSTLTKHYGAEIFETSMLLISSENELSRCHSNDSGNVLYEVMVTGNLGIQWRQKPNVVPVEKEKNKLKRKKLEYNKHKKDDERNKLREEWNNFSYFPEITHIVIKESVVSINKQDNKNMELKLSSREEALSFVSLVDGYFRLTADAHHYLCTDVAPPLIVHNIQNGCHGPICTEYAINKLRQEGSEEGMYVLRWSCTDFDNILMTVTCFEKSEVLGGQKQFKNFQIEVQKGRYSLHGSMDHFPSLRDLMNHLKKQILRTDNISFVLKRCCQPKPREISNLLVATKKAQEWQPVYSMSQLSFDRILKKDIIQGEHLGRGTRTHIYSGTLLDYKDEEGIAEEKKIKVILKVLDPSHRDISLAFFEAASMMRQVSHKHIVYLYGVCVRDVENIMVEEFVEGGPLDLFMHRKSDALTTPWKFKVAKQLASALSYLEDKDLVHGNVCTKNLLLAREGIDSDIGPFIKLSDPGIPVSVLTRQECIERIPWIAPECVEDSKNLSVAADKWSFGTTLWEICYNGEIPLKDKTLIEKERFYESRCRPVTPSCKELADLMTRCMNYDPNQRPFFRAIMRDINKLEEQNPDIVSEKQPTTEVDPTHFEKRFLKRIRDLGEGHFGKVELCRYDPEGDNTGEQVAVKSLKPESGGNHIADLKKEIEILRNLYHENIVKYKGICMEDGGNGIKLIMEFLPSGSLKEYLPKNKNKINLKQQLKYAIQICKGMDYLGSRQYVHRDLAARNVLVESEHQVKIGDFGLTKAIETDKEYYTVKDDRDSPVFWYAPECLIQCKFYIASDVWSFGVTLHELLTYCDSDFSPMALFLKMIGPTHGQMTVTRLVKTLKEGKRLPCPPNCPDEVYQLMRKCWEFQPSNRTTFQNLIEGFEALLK

No constants are given. Whether binding was seen depends on the method and setting. Binding seen in cells or lysates may run through a third protein. Here binding means that the protein was enriched with, or labelled near, the bait; the list need not be complete. For part of these data: A no says only that the protein was not detected with the bait. Tags and fused reporters may be left off the sequences shown.

For assay [1], the target named is T1, Atoh1-GFP (knock-in, in mouse tissue) (mouse (endogenous knock-in in Nd2::SmoA1 tumours and cerebellum)) (UniProt P48985).
T1 sequence: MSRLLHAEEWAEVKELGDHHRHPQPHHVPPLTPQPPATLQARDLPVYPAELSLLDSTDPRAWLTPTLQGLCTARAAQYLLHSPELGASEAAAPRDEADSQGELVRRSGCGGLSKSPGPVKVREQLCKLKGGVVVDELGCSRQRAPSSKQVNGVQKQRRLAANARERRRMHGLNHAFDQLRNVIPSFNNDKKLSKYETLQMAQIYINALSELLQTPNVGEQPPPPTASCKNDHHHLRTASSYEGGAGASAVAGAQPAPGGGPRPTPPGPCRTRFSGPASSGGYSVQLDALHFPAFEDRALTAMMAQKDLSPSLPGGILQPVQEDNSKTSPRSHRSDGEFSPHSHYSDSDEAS
Description: affinity purification with mass spectrometry; GFP-trap beads on lysate of 10^8 Atoh1-positive/CD15-positive (tumor-initiating) cells of Nd2::SmoA1 Atoh1-GFP tumors; overnight at 4°C; 50 mM Tris pH 8.1, 137.5 mM NaCl, 2 mM EDTA, 0.5% Triton-X-100.

Assay [2] has as its target T1, Atoh1-GFP (knock-in, in mouse tissue) (mouse (endogenous knock-in in Nd2::SmoA1 tumours and cerebellum)). Description: condition: only in CD15-negative (non-initiating) tumor cells; affinity purification with mass spectrometry; GFP-trap beads on lysate of 10^8 Atoh1-positive/CD15-negative (non-initiating) cells of Nd2::SmoA1 Atoh1-GFP tumors; overnight at 4°C; 50 mM Tris pH 8.1, 137.5 mM NaCl, 2 mM EDTA, 0.5% Triton-X-100.

For assay [3] the target is unchanged. Description: affinity purification with mass spectrometry; GFP-trap beads on lysate of 10^8 Atoh1-positive/CD15-negative (non-initiating) cells of Nd2::SmoA1 Atoh1-GFP tumors; overnight at 4°C; 50 mM Tris pH 8.1, 137.5 mM NaCl, 2 mM EDTA, 0.5% Triton-X-100.

For “Janus kinase 2 (Jak2) (from UniProt Q62120 1-1132) (enzyme)”, the binding result in assay [1] was “binds”; in assay [2] it was “no binding”.
On to “Jak1 (from UniProt P52332 1-1153) (enzyme)”, for which the binding entry in assay [3] is listed as “binds”.
